Results of single-concentration screens

From ChEMBL document CHEMBL3988442, “University of Dundee, Small-Polar-MMV Screening Library” (2021).

Results are given as percent effect.
How 0% and 100% were set is not recorded. Most values in the screen are low, and negative values occur.
Compounds were drawn at random from those tested, without regard to their results.

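Whole-cell growth test on Mycobacterium tuberculosis, read after 3 days in glucose-containing 7H9 medium; the read-out is not stated. Concentration: 500 µM. The record gives no direction; compounds that gave an IC50 in retests scored well above the rest, so higher reads as more growth inhibition. Size under these conditions: about 18,000 compounds, about 1,400 of them at 50% or above in at least one test.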

CC(C)CCC(=O)NCC(=O)NCC(O)C(C)(C)C (centres unmarked) gave 11.95%.
O=C1CN(C(=O)Cn2ccc3ccc(Cl)cc32)CCN1 gave 16.61%.
CCS(=O)(=O)Nc1ccc(CN)cc1 gave 6.104%.
Cc1cc(N)n(CC(=O)NCC2CCCOC2)n1 (centres unmarked) gave 1.604%.
CC(c1ccccn1)N(C)c1ncccc1C#N (centres unmarked) gave 47.42%.
Nc1ccc(C(=O)NCC2(CO)CCOCC2)cn1 gave 15.16%.
COCCN(C(=O)c1sccc1OC)c1ccncc1 gave 18.59%.
CN1CCN(C(=O)Cc2cn(C)c3ccccc23)CC1 gave 22.94%.
COc1cccc(C(=O)NCCC2=CCCN(C)C2)c1 gave 1.241%.
Cc1cnc(C)c(N2CCNCC2)n1 gave 7.741%.
CCC(N)(CC)CNS(=O)(=O)c1cccc(F)c1 gave -4.013%.
O=C(NCc1nnc2n1CCC2)Nc1nncs1 gave -13.31%.
CCc1noc(CN2CCCC(CS(N)(=O)=O)C2)n1 (centres unmarked) gave 14.13%.
COCCS(=O)(=O)NC1CCCCC1 gave 7.06%.
COCCC1CN(C(=O)c2nc(C)c[nH]2)CCO1 (centres unmarked) gave 27.41%.
O=C(CCc1cc(F)ccc1Br)N1CC[S+]([O-])CC1 gave 40.63%.
CC(CNC(=O)c1ccncc1)c1ccccc1 (centres unmarked) gave 62.82%.
COc1cc(CN)cc(Cl)c1OCC(N)=O gave 13.59%.
CCCC(N)c1nnc2ccccn12 (centres unmarked) gave -2.912%.
COc1c(Br)cccc1CN gave 34.64%.
CCOC(=O)C1(N)CCN(C)CC1 gave -4.186%.
CCc1nnc(CNC(=O)C2CCC(=O)N(CC)C2)s1 (centres unmarked) gave 12.34%.
O=C(c1ccc(CN2CCSCC2)cc1)N1CCCC1 gave 19.58%.
CC(C)(CNC(=O)C(C)(C)C)CNC(=O)C(C)(C)C gave 3.523%.
O=C(NCc1ccc2c(c1)OCO2)N1CCCCC1 gave 73.65%.
NCC(=O)N1CCCC(CCc2ccccc2F)C1 (centres unmarked) gave 74.68%.
CN(C)C(=O)c1cc(Br)c2c(c1)OCCO2 gave 21.21%.
CC(C)CC(N)c1nc2ccccc2[nH]1 (centres unmarked) gave 20.73%.
COC1(CN)CCOCC1 gave -8.376%.
Cc1csc(CNc2ccc(OCCO)nc2)n1 gave -8.747%.
COc1ncccc1CNS(=O)(=O)C1CC1 gave -8.416%.
CNC(=O)Cc1csc(NC(=O)c2cccs2)n1 gave 25.96%.
O=C(NCC1CCCO1)c1nc(-c2ccccc2)no1 (centres unmarked) gave 49.14%.
O=C(OCC(=O)N1CCNC1=O)c1ccc(O)cc1 gave 19.07%.
CCC(O)CNc1cc(C2CCNCC2)nc(C)n1 (centres unmarked) gave 6.007%.
CCN1CCCC(C)(C(=O)NCCc2nnc(C)s2)C1 (centres unmarked) gave 15.59%.
CC1CS(=O)(=O)CCN1CC(=O)N(C)Cc1ccco1 (centres unmarked) gave 9.142%.
NC(=O)c1ccc(-c2nc(C3CCCC3)no2)o1 gave 69.8%.
Clc1cccc2nc(N3CCNCC3)oc12 gave 53.39%.
Cc1ccc(C(=O)N2CCOCC2)cc1NS(C)(=O)=O gave 9.759%.
COCc1ccc(SCC(=O)N(C)C)cc1 gave 52.43%.
CC(SCCN1CCOCC1)C(=O)N(C)C(C)C (centres unmarked) gave -3.464%.
CNC(=O)NC(=O)CCN1CCCC(C)C1 (centres unmarked) gave 46.89%.
CC(=O)c1c(SCC(=O)NC2CC2)nc(=O)[nH]c1C gave 5.059%.
O=C(c1ccccc1O)N1CCN2CCCCC2C1 (centres unmarked) gave 5.081%.
CC(C(N)=O)n1cccn1 (centres unmarked) gave 10.48%.
Cn1ccnc1CN1CCN(C2=NCC(C)(C)S2)CC1 gave 0.05506%.
Cc1noc(NCc2ccccc2F)n1 gave 33.43%.
COc1ccc(C2CCCN2CC(=O)NC(N)=O)cc1 (centres unmarked) gave 24.22%.
O=C(NCc1ccc2c(c1)OCCCO2)c1cscn1 gave 74.27%.
COc1ncc(C(=O)N2CCc3ccccc3C2)cn1 gave 16.5%.
CCC(CNS(=O)(=O)N(C)CC)c1ccccc1 (centres unmarked) gave 75.11%.
NS(=O)(=O)c1cccc2c1CCCN2Cc1nccs1 gave 50.34%.
CN(C)CCc1ccc(CN)cc1 gave 1.539%.

3 of the entries, repeated:

COC1(CN)CCOCC1 gave -8.376%.
CCC(O)CNc1cc(C2CCNCC2)nc(C)n1 (centres unmarked) gave 6.007%.
COCCN(C(=O)c1sccc1OC)c1ccncc1 gave 18.59%.